The other results are listed elsewhere or left out.

Protein sequences, listed by entry. Tags and fused reporters are not part of them. Lines headed by an entry give the natural chain unless they say otherwise; changes in a name come on top.
UniProt O14745: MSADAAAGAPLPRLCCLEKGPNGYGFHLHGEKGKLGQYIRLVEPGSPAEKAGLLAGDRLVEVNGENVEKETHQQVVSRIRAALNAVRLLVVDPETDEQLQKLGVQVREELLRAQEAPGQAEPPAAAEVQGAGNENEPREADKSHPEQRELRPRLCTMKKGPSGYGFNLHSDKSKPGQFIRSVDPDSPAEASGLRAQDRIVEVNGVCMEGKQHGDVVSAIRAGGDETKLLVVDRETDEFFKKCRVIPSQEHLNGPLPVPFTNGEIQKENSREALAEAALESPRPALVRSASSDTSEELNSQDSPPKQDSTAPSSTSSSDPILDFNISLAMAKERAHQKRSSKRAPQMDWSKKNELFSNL
UniProt Q6GMV2: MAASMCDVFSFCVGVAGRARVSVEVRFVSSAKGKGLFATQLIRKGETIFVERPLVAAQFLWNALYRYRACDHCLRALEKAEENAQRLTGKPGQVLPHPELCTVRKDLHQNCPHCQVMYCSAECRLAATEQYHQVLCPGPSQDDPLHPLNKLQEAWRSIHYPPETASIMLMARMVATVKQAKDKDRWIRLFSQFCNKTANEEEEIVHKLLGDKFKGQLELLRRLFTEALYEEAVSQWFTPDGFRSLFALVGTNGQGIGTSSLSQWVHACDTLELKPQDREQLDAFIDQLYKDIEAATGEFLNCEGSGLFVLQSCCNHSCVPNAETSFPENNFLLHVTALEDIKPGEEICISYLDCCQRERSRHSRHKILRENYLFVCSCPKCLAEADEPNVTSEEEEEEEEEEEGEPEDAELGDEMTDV
UniProt Q96EX1: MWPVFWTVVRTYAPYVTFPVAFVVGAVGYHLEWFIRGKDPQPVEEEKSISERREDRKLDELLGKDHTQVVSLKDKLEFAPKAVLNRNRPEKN
UniProt Q00796: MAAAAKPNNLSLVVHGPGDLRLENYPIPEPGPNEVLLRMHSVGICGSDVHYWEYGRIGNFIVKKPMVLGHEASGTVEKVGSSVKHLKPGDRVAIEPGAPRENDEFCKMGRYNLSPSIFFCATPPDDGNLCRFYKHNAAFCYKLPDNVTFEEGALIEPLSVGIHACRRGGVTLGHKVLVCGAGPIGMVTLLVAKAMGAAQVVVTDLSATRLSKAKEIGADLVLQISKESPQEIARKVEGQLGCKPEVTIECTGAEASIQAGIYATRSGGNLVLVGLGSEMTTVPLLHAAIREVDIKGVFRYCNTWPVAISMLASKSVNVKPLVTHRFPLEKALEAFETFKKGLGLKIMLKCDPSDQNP
UniProt P62304, whole entry, looked up: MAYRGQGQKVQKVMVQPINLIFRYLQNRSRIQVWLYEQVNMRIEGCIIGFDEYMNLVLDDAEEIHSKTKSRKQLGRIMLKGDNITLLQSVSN
UniProt O60641: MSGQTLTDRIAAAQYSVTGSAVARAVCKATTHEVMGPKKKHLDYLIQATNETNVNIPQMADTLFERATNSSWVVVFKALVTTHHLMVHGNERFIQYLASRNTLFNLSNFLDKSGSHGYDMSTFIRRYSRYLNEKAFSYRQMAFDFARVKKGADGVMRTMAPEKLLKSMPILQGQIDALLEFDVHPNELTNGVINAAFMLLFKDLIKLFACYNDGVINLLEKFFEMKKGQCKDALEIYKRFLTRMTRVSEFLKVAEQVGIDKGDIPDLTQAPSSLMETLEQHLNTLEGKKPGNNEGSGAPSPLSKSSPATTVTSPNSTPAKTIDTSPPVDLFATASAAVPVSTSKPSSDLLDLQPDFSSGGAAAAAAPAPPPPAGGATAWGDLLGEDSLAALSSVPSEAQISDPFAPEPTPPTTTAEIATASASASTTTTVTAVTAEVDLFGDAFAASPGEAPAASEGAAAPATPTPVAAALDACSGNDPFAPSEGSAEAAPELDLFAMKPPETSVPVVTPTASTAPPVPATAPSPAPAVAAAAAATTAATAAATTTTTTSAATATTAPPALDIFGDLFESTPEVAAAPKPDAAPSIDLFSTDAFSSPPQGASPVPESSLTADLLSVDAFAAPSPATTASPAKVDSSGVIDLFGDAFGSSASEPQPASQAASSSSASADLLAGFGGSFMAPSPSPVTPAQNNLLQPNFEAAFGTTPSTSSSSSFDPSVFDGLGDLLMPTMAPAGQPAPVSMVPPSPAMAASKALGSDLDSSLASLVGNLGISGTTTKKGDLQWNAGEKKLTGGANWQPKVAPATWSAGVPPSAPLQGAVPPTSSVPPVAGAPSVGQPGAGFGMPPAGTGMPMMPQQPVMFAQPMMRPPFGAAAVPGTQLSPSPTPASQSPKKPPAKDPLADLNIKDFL
UniProt P62314, whole entry, looked up: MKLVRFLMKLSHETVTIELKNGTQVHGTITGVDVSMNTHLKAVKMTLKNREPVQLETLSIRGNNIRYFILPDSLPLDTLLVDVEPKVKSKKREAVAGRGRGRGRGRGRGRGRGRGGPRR
UniProt Q14683: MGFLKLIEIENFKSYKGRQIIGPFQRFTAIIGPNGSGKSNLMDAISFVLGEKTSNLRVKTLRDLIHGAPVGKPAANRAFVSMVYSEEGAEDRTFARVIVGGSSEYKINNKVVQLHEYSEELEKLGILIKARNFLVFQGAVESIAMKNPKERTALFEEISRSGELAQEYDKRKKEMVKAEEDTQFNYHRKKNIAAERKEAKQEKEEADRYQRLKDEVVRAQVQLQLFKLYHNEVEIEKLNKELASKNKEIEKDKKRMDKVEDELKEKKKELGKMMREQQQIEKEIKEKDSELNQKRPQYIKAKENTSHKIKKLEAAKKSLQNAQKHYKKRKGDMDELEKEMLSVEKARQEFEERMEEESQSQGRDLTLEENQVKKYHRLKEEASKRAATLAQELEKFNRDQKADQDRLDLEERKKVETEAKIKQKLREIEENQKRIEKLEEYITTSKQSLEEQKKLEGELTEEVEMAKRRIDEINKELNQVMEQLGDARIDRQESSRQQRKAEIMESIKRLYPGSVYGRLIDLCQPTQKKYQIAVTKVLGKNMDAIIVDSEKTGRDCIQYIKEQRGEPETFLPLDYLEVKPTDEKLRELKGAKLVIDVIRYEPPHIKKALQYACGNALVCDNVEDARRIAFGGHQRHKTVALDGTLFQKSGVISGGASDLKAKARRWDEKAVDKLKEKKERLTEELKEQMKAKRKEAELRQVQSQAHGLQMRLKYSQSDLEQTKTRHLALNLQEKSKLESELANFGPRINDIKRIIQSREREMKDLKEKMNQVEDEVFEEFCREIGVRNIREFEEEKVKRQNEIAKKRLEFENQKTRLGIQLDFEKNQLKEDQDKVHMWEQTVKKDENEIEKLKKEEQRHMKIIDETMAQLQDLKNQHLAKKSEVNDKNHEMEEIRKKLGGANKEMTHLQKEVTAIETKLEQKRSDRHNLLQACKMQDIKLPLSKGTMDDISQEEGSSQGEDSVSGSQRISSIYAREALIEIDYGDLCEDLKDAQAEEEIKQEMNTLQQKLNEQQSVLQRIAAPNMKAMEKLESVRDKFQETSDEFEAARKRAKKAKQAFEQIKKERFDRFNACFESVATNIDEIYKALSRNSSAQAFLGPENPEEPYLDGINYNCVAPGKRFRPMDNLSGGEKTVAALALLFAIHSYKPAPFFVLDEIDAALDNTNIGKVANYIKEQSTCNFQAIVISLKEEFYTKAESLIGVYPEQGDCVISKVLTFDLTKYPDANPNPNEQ
UniProt Q8WVI0: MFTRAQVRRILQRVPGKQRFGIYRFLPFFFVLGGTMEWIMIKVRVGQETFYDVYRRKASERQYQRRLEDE
UniProt P09661: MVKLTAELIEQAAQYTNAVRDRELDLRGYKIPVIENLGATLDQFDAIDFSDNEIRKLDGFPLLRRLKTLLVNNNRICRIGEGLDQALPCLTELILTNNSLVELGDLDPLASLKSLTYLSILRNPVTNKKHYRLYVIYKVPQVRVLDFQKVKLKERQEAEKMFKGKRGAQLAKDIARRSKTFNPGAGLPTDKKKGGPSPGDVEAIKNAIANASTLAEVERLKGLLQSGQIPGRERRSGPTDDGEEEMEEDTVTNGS
UniProt Q96KF7: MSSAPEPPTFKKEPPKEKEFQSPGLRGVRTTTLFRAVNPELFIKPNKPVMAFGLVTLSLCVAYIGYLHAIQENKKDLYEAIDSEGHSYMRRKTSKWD
UniProt Q8NDV3: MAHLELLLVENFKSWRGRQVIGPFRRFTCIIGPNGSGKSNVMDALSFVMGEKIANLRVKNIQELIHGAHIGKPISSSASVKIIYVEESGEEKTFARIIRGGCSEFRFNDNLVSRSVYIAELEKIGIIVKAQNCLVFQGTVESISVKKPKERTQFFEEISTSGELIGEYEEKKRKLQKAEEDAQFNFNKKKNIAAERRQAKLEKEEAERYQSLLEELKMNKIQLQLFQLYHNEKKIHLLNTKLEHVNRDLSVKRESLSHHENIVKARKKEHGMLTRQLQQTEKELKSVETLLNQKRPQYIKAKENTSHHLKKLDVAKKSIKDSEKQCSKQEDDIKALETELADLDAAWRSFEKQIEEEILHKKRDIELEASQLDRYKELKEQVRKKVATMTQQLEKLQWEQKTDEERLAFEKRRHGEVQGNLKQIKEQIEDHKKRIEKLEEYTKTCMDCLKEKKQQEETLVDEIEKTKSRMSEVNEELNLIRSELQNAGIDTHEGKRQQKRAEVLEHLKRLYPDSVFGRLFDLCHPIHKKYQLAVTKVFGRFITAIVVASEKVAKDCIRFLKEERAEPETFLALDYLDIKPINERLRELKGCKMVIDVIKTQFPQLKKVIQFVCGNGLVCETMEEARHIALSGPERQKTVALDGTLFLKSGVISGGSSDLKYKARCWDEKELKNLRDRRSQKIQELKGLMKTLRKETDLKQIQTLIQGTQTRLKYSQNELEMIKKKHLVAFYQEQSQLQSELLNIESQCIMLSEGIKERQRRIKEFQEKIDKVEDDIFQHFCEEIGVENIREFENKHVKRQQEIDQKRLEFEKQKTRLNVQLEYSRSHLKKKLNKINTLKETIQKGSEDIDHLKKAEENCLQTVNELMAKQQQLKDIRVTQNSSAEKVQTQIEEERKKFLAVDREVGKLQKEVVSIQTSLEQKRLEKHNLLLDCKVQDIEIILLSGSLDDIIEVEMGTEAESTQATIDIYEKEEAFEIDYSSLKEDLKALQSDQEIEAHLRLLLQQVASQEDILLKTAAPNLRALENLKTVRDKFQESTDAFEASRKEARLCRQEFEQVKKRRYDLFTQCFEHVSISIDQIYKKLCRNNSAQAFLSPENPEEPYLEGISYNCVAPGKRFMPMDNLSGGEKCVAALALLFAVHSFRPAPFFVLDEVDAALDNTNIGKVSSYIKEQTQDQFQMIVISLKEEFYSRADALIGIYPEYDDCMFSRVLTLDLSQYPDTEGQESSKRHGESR
UniProt P62316, whole entry, looked up: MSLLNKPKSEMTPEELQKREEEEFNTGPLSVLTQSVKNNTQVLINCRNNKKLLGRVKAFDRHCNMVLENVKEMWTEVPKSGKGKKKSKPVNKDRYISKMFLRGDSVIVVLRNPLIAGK
UniProt Q16637, whole entry, looked up: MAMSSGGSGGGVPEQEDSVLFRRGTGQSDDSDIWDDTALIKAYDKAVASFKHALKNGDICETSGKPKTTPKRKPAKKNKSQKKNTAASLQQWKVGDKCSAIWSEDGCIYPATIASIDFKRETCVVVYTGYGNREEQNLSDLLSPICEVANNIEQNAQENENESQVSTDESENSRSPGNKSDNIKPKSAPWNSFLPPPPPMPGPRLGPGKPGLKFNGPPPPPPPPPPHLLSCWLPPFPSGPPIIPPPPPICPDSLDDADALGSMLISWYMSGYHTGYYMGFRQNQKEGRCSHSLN
UniProt Q7Z3B0: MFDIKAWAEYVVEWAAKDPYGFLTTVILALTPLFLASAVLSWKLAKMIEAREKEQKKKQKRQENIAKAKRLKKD
UniProt Q96BD0: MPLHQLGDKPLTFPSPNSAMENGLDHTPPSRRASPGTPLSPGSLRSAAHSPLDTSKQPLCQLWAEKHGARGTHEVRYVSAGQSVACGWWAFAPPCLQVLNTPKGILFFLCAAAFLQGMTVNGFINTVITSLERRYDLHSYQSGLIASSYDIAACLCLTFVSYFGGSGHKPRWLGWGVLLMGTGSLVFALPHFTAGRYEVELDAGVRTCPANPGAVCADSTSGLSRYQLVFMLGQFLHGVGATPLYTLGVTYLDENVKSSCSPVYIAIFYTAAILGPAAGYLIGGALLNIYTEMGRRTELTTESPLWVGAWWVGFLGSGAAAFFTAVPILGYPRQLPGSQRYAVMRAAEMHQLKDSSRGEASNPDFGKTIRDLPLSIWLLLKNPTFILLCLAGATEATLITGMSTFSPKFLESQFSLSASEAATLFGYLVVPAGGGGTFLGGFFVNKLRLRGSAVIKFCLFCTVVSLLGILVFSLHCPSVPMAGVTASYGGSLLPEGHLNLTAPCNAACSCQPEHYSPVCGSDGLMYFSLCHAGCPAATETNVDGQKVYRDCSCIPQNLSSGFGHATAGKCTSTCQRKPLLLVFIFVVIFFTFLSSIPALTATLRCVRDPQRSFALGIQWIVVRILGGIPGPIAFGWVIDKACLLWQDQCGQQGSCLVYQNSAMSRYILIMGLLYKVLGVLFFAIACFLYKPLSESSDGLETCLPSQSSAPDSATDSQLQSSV

Our source for the log2 fold change values is the supplement of paper PMC10849652.

Compound in the assay: c1cn2cc(-c3ccc4cn[nH]c4c3)nc(Nc3ccc(N4CCOCC4)cc3)c2n1 [entospletinib]
The assay can be described thus: log2 fold change, soluble protein after heating vs DMSO (PISA); higher = thermal stabilisation; K562 cells, 10 uM, 30 min; active = over 0.2 and 3.5 SD of the protein, either way, in both replicates (recomputed). In outline:
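Thermal stability values are relative to control samples and come from duplicates. They are expressed as log2 fold changes. For measurement, K562 cells (2×10^6 cells/mL) received 10 μM compound for 30 min, and aliquots were heated for 3 min over 48°C-58°C, pooled, and extracted at 4°C in PBS with 0.5% NP-40. Soluble protein, the supernatant after 21,000xg for 90 min, was quantified by TMTpro 16plex LC-MS/MS with equalised channel sums.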
For SMU1 (UniProt Q2TAY7), the log2 fold change was inactive: -0.019.

SMC3 (UniProt Q9UQE7): the log2 fold change is inactive: -0.027.

For the target SLC9A3R1 (UniProt O14745), the log2 fold change was inactive: 0.012.

For SMYD5 (UniProt Q6GMV2), the log2 fold change is inactive: -0.08.

With SMIM12 (UniProt Q96EX1), the log2 fold change was inactive: -0.003.

As to SORD (UniProt Q00796), the log2 fold change was inactive: -0.005.

On to SOD2 (UniProt P04179), for which the log2 fold change is inactive: -0.01.

Regarding SNRPC (UniProt Q5TAL2), the log2 fold change is inactive: -0.296.

On to SNRPE (UniProt P62304), for which the log2 fold change is inactive: 0.015.

SNF8 (UniProt Q96H20): the log2 fold change was inactive: 0.036.

With SNU13, A0A3B3IUA2, the log2 fold change is inactive: -0.096.

Consider SNAP91 (UniProt O60641), for which the log2 fold change is inactive: -0.058.

SNRPD1 (UniProt P62314): the log2 fold change is inactive: 0.056.

As to SMC1A (UniProt Q14683), the log2 fold change is inactive: -0.009.

For the target SMIM4 (UniProt Q8WVI0), the log2 fold change was inactive: 0.082.

Consider SNRPB isoform 3 (UniProt P14678), for which the log2 fold change was inactive: 0.017.

Turning to SNRPN isoform 2 (UniProt P63162), the log2 fold change is inactive: -0.086.

Consider SNRPA1 (UniProt P09661), for which the log2 fold change was inactive: -0.043.

SMIM8 (UniProt Q96KF7): the log2 fold change is inactive: -0.026.

SMC1B isoform 3 (UniProt Q8NDV3): the log2 fold change was inactive: -0.031.

Take SMAP1 isoform 2 (UniProt Q8IYB5): the log2 fold change is inactive: -0.015.

Consider SON isoform 9 (UniProt P18583), for which the log2 fold change is inactive: 0.109.

As for SMG8 isoform 2 (UniProt Q8ND04), the log2 fold change is inactive: 0.054.

Take SMC4 (UniProt Q9NTJ3): the log2 fold change was inactive: -0.008.

For the target SNRPD2 (UniProt P62316), the log2 fold change is inactive: -0.019.

SMN1 (UniProt Q16637): the log2 fold change was inactive: 0.078.

In the case of SMIM15 (UniProt Q7Z3B0), the log2 fold change is inactive: 0.09.

Turning to SLCO4A1 (UniProt Q96BD0), the log2 fold change was inactive: 0.124.
